No constants are given. Whether binding was seen depends on the method and setting. In cells and extracts the contact can be indirect. A yes stands for co-enrichment or nearness to the bait. Other partners may have been found.

The chains behind the UniProt entries cited, without tags or fusion partners.
UniProt P41208: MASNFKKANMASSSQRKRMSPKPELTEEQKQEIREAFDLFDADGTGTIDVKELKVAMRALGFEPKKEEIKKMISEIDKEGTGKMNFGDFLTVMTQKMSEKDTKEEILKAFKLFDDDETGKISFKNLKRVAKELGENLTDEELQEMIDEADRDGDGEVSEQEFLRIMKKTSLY
UniProt Q4AC94: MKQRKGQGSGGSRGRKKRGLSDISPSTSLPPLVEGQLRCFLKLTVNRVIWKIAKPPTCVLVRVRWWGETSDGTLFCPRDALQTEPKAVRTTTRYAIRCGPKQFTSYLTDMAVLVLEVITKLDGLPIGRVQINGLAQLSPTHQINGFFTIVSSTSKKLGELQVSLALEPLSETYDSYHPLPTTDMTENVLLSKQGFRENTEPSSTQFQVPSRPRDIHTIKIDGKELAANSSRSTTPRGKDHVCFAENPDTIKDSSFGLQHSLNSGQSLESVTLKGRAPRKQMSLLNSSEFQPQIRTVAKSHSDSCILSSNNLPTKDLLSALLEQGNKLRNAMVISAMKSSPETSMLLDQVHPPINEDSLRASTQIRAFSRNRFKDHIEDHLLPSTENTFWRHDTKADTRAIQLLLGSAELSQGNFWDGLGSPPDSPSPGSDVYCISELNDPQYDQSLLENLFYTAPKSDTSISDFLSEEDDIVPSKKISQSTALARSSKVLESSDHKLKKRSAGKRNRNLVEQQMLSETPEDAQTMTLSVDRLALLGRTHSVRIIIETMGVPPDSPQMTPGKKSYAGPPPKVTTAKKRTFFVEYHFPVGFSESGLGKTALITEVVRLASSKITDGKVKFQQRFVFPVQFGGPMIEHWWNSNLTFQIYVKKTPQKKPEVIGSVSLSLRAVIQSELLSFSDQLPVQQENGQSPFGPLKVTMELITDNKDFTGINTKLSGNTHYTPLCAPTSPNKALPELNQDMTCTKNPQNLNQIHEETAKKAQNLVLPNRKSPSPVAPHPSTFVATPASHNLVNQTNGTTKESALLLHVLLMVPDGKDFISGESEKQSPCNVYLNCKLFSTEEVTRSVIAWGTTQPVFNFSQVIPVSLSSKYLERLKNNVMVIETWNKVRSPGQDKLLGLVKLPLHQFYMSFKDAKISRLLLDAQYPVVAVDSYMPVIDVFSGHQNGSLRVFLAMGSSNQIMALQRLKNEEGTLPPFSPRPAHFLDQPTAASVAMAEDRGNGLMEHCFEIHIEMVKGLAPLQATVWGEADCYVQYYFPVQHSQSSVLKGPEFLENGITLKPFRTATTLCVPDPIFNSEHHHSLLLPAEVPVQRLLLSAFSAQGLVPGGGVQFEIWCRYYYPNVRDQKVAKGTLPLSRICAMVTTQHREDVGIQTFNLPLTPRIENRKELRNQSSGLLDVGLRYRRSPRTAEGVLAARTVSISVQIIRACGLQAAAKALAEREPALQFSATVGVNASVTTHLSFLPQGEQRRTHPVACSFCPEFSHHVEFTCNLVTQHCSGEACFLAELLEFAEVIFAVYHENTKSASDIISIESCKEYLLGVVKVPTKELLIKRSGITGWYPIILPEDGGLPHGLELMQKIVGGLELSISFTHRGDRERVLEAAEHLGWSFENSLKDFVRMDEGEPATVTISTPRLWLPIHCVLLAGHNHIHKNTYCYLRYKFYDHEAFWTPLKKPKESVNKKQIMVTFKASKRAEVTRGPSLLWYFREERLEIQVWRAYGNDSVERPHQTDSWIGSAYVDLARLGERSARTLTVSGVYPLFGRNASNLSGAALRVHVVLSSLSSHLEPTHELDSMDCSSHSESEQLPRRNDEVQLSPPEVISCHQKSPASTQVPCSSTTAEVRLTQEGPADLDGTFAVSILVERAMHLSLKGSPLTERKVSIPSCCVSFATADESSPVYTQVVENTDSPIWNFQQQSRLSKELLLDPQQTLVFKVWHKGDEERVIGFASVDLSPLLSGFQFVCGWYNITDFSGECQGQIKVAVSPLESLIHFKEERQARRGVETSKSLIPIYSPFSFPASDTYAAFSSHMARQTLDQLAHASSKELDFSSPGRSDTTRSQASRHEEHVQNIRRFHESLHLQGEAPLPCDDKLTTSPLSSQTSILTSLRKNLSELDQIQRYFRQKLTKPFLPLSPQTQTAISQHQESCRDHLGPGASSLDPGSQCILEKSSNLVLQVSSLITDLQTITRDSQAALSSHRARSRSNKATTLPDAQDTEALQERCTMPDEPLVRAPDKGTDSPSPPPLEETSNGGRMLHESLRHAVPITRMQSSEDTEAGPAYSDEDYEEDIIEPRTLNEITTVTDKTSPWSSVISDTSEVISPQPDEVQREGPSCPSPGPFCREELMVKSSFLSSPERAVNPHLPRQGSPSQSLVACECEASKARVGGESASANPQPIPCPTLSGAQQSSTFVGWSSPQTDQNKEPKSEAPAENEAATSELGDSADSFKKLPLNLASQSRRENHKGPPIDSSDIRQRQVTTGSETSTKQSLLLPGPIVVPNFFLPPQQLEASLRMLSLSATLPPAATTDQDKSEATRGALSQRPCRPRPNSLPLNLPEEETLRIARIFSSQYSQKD

Assay [1] addresses T1, V5BirA*-POC5 (UniProt Q8NA72).
T1 sequence: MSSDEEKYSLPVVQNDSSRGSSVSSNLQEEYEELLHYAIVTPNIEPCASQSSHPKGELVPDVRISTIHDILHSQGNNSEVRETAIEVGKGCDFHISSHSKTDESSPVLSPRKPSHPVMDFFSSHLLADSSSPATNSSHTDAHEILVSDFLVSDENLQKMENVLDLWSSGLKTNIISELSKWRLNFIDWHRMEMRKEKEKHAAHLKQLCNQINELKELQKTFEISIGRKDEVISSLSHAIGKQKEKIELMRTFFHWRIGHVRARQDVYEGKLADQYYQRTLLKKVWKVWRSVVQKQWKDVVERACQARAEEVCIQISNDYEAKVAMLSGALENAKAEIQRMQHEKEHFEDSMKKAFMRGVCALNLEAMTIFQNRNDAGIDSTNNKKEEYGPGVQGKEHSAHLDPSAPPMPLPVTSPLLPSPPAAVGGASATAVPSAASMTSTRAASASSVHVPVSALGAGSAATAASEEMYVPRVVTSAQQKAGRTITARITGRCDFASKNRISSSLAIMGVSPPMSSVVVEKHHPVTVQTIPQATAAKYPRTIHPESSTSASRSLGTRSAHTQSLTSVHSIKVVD
The assay can be described thus: proximity labelling.

Assay [2] deals with V5BirA*-Centrin-2 (UniProt P41208). Description: proximity labelling.

As for “C2CD3 (endogenous) (from UniProt Q4AC94 1-2353)”, the binding result in assay [1] and in assay [2] was “binds” in each case.

B1: HAUS6 (endogenous) (protein, UniProt Q7Z4H7 1-955)
chain: MSSASVTAFEKEHLWMYLQALGFEPGPATIACGKIVSHTHLGVNMFDKLNRDAFHIISYFLFQVLDQSLTKEVFKFCWPPFDQKSDTEFRKHCCEWIKRISGECGSSFPQVVGSLFLSPGGPKFIHLMYHFARFVAMKYIKSNSKNSSHHFVETFNIKPQDLHKCIARCHFARSRFLQILQRQDCVTQKYQENAQLSVKQVRNLRSECIGLENQIKKMEPYDDHSNMEEKIQKVRSLWASVNETLMFLEKEREVVSSVLSLVNQYALDGTNVAINIPRLLLDKIEKQMFQLHIGNVYEAGKLNLLTVIQLLNEVLKVMKYERCQADQARLTVDLHYLEKETKFQKERLSDLKHMRYRIKDDLTTIRHSVVEKQGEWHKKWKEFLGLSPFSLIKGWTPSVDLLPPMSPLSFDPASEEVYAKSILCQYPASLPDAHKQHNQENGCRGDSDTLGALHDLANSPASFLSQSVSSSDRNSVTVLEKDTKMGTPKEKNEAISKKIPEFEVENSPLSDVAKNTESSAFGGSLPAKKSDPFQKEQDHLVEEVARAVLSDSPQLSEGKEIKLEELIDSLGSNPFLTRNQIPRTPENLITEIRSSWRKAIEMEENRTKEPIQMDAEHREVLPESLPVLHNQREFSMADFLLETTVSDFGQSHLTEEKVISDCECVPQKHVLTSHIDEPPTQNQSDLLNKKVICKQDLECLAFTKLSETSRMETFSPAVGNRIDVMGGSEEEFMKILDHLEVSCNKPSTNKTMLWNSFQISSGISSKSFKDNDFGILHETLPEEVGHLSFNSSSSSEANFKLEPNSPMHGGTLLEDVVGGRQTTPESDFNLQALRSRYEALKKSLSKKREESYLSNSQTPERHKPELSPTPQNVQTDDTLNFLDTCDLHTEHIKPSLRTSIGERKRSLSPLIKFSPVEQRLRTTIACSLGELPNLKEEDILNKSLDAKEPPSDLTR
As for B1, the binding result in assay [1] and in assay [2] was “binds” throughout.

B2: CEP135 (endogenous) (protein, UniProt Q66GS9 1-1140)
chain: MTTAVERKYINIRKRLDQLGYRQTLTVECLPLVEKLFSDLVHTTESLRQSKLSAVKAEKESANFDFVLEPYKLENARLSRENNELYLELMKLREHSDQHVKELKTSLKKCARETADLKFLNNQYAHKLKLLEKESKAKNERIQQLQEKNLHAVVQTPGGKKRSIAFRRQRMQIDEPVPPSEVSSYPVPQPDDPYIADLLQVADNRIQELQQEVHQLQEKLAMMESGVRDYSKQIELREREIERLSVALDGGRSPDVLSLESRNKTNEKLIAHLNIQVDFLQQANKDLEKRIRELMETKETVTSEVVNLSNKNEKLCQELTEIDQLAQQLERHKEEVLETADKELGEAKKEIKRKLSEMQDLEETMAKLQLELNLCQKEKERLSDELLVKSDLETVVHQLEQEKQRLSKKVESFAVTERQLTLEVERMRLEHGIKRRDRSPSRLDTFLKGIEEERDYYKKELERLQHIIQRRSCSTSYSAREKSSIFRTPEKGDYNSEIHQITRERDELQRMLERFEKYMEDIQSNVKLLTAERDKLSVLYNEAQEELSALRKESTQTTAPHNIVSLMEKEKELALSDLRRIMAEKEALREKLEHIEEVSLFGKSELEKTIEHLTCVNHQLESEKYELKSKVLIMKETIESLENKLKVQAQKFSHVAGDSSHQKTEVNSLRIVNEQLQRSVDDYQHRLSIKRGELESAQAQIKILEEKIDELNLKMTSQDEEAHVMKKTIGVIDKEKDFLQETVDEKTEKIANLQENLANKEKAVAQMKIMISECESSVNQLKETLVNRDREINSLRRQLDAAHKELDEVGRSREIAFKENRRLQDDLATMARENQEISLELEAAVQEKEEMKSRVHKYITEVSRWESLMAAKEKENQDLLDRFQMLHNRAEDWEVKAHQAEGESSSVRLELLSIDTERRHLRERVELLEKEIQEHINAHHAYESQISSMAKAMSRLEEELRHQEDEKATVLNDLSSLRELCIKLDSGKDIMTQQLNSKNLEFERVVVELENVKSESDLLKKQLSNERHTVKNLESLLATNRDKEFHSHLTSHEKDTEIQLLKEKLTLSESKLTSQSRENTMLRAKVAQLQTDYDALKRQISTERYERERAIQEMRRHGLATPPLSSTLRSPSHSPEHRNV
In the case of B2, the binding entry in assay [1] and in assay [2] was “binds” in each case.

B3: FAM161A (endogenous) (protein, UniProt Q3B820 1-660)
chain: MATSHRVAKLVASSLQTPVNPITGARVAQYEREDPLKALAAAEAILEDEEEEKVAQPAGASADLNTSFSGVDEHAPISYEDFVNFPDIHHSNEEYFKKVEELKAAHIETMAKLEKMYQDKLHLKEVQPVVIREDSLSDSSRSVSEKNSYHPVSLMTSFSEPDLGQSSSLYVSSSEEELPNLEKEYPRKNRMMTYAKELINNMWTDFCVEDYIRCKDTGFHAAEKRRKKRKEWVPTITVPEPFQMMIREQKKKEESMKSKSDIEMVHKALKKQEEDPEYKKKFRANPVPASVFLPLYHDLVKQKEERRRSLKEKSKEALLASQKPFKFIAREEQKRAAREKQLRDFLKYKKKTNRFKARPIPRSTYGSTTNDKLKEEELYRNLRTQLRAQEHLQNSSPLPCRSACGCRNPRCPEQAVKLKCKHKVRCPTPDFEDLPERYQKHLSEHKSPKLLTVCKPFDLHASPHASIKREKILADIEADEENLKETRWPYLSPRRKSPVRCAGVNPVPCNCNPPVPTVSSRGREQAVRKSEKERMREYQRELEEREEKLKKRPLLFERVAQKNARMAAEKHYSNTLKALGISDEFVSKKGQSGKVLEYFNNQETKSVTEDKESFNEEEKIEERENGEENYFIDTNSQDSYKEKDEANEESEEEKSVEESH
As for B3, the binding entry in assay [1] and in assay [2] was “binds” each time.

B4: CCDC15 (endogenous) (protein, UniProt Q0P6D6 1-951)
chain: MLGSMARKKPRNTSRLPLALNPLKSKDVLAVLAERNEAIVPVGAWVEPASPGSSEIPAYTSAYLIEEELKEQLRKKQEALKHFQKQVKYRVNQQIRLRKKQQLQKSYERAQKEGSIAMQSSATHLTSKRTSVFPNNLNVAIGSSRLPPSLMPGDGIEDEENQNELFQQQAQALSETMKQARHRLASFKTVIKKKGSVFPDDGRKSFLTREEVLSRKPASTGINTGIRGELPIKVHQGLLAAVPYQNYMENQELDYEEPDYEESSSLVTDEKGKEDLFGRGQQDQQAIHSEDKNKPFSRVQKVKFKNPLFVLMEEEEQKQLHFEGLQDILPEAQDYFLEAQGDLLETQGDLTGIQSVKPDTQAVEMKVQVTEPEGQAIEPEGQPIKTETQGIMLKAQSIELEEGSIVLKTQDFLPTNQALLTKNQDVLLKDHCVLPKDQSILLKYQDQDFLPRDQHVLHKDQDILPKYQDQNFLPKDQNFLSRDQHVLPKDQDILPKYQDQNFLPKDQNFLSRDQHVLPKDQNILPKYQGQDFLPKDQDFLSRDQHVLPKDWNILPKCQDQDFLPRDQGVLPKDQNILPICQDQDFLPRDQGYLPKDQNILPICQDRDFLPRDLHVLSNDQNILPKCQDQDFLPKYQKVHFKEPYSDMTDEKGREDFSLADYQCLPPKSQDQDDIKNQQPASFMREERVREELPLDYHQYVVPKIQDQDSPREQNKHIKLPSSFEKWEIARGNTPGVPLAYDRYQSGLSTEFQAPLAFQSDVDKEEDKKERQKQYLRHRRLFMDIEREQVKEQQRQKEQKKKIEKIKKKREQECYAAEQRILRMNFHEDPYSGEKLSEILAQLQLQEIKGTREKQQREKEYLRYVEALRAQIQEKMQLYNITLPPLCCCGPDFWDAHPDTCANNCIFYKNHRAYTRALHSFINSCDVPGGNSTLRVAIHNFASAHRRTLKNL
In the case of B4, the binding result in assay [1] and in assay [2] was “binds” throughout.

Source of the values: doi:10.1101/2023.02.16.528810.
